Library screen at single concentrations

The values are deposited in ChEMBL (CHEMBL3988442, “University of Dundee, Small-Polar-MMV Screening Library” (2021)).

Mtb cholesterol medium: 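Whole-cell growth test on Mycobacterium tuberculosis, read after 4 days in a medium based on cholesterol and the lipid DPPC; the read-out is not stated. Tested at 50 µM. Direction is inferred from retests: higher values go with more growth inhibition. About 69,000 compounds were tested under these conditions; 0.54% (about 370) showed 50% or more at least once.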
Mtb glucose medium: 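Phenotypic screen: M. tuberculosis growth, glucose 7H9 medium, 3 days; the read-out is not stated. Compounds at 50 µM. The record gives no direction; compounds that gave an IC50 in retests scored well above the rest, so higher reads as more growth inhibition. Size under these conditions: about 69,000 compounds, about 760 of them at 50% or above in at least one test.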

Results are given as percent effect.
How 0% and 100% were set is not recorded. Most values in the screen are low, and negative values occur.
The compounds are a random part of those screened.
Two or more numbers in one place are separate tests of the same structure; such repeats can differ widely.

Compound | Mtb cholesterol medium | Mtb glucose medium
Cn1cc(CN2CCc3c(cnc(-c4ccccc4)c3C(=O)O)C2)cn1.O=C(O)C(F)(F)F.O=C(O)C(F)(F)F | 24.76 | -7.698 and -22.3
CSc1nccc(N2CCC3(CCCN(Cc4ccc(F)cc4)C3)C2)n1 (centres undefined) | 62.9 | 91.36
CN(CCO)CC1COCCN1C(=O)CCC1CCCC1.O=CO (centres undefined) | -0.4113 | -3.821
CS(=O)(=O)c1ccc(OCCNCc2cccc(Cl)c2)cc1 | 3.834 and -0.5119 | -4.105
CCOCC(=O)N1Cc2nnn(C)c2C(COCc2ccccn2)C1.O=C(O)C(F)(F)F (centres undefined) | -27.72 | -9.648 and -21.97
Cc1ccc(OC2(C(=O)O)CCN(C(=O)c3cccc(F)c3)CC2)cn1 | 24.47 | 10.31
O=C(Nc1cccnc1)c1nn(C2CCS(=O)(=O)C2)c2c1CCCC2 (centres undefined) | -10.54 | 1.34
CCCOc1cc(F)ccc1NC(=O)NCc1noc(C)n1 | -7.845 | -8.557
CCc1nccn1C1CCCN(C(=O)c2cnn3cccnc23)C1 (centres undefined) | -44.16 | -14.03
CCCN1CC2(CCN(c3ncc(F)cn3)CC2)CC1C(=O)O (centres undefined) | -5.149 | -4.313
Cc1ccsc1C(=O)N1CCC(c2nccn2Cc2ccncc2)CC1 | 17.33 and -12.05 | -15.09
CN(C)CC(C)(O)CNC(=O)Nc1sc2ccccc2c1Cl (centres undefined) | 20.84 | 32.14
Cc1nnc(C(C)Nc2cccc(COCCc3ccccc3)c2)o1 (centres undefined) | 10.23 | 4.361 and 16.94
CCn1cc(CNc2ccc(F)c(F)c2)cn1 | -11.47 | 13
CC1CN(CC(=O)Nc2nncs2)CCN1Cc1nccn1C (centres undefined) | -7.804 | -0.9678
[H][C@@]12CCN(C(=O)c3cccn3C)C[C@@]1([H])O[C@@H](C)C2 | -13.17 | -6.773
CCc1c(C(=O)O)nnn1-c1ccc(C)cc1C | -8.712 | -8.755
CN(C)CCN(Cc1ccc(Cl)cc1)C(=O)c1ccn(C)c(=O)c1 | -15.65 | -21.23
COc1cccc(C(=O)N2CCc3c(nc(N)[nH]c3=O)C2)c1OC | -40.35 | -12.25
COc1ccc(-c2ccccc2CCN)c(OC)c1 | 33.92 | 47.37 and 61.82
O=C(CCn1ccc2ccc(F)cc21)/N=c1\[nH]nc(C2CCCO2)s1 (centres undefined) | -10.68 | -21.16
COc1cccc(-c2c[nH]c(C3CCCN3)n2)c1.Cl.Cl (centres undefined) | 4.206 | 4.19
CN1CCNC(=O)C1CC(=O)NCCc1cnn(-c2ccccc2)c1 (centres undefined) | -17.67 | -17.14
Cc1ccccc1CN1CCC(CNC(=O)Cn2cncn2)CC1 | -10.12 | -10.29 and -41.23
CN(Cc1ccco1)C(=O)CN1CCc2ccccc2C1 | 5.211 | 21.26
COCCN1CCC(CNC(=O)C2(c3ccc(F)cc3)CCC2)CC1 | 0.24 | -6.351
c1ccc(CC2(CNCc3ncc[nH]3)CCC2)cc1 | 11.91 | 4.558
CC(C)(CO)Nc1cc(-c2ccccc2)ncn1 | -5.757 | 28.04
CC(C)Oc1cccc(C(=O)C2CCCN(S(=O)(=O)C(C)C)C2)c1 (centres undefined) | 8.815 | -9.244
[H][C@@]12CS(=O)(=O)C[C@]1([H])N(S(=O)(=O)N1CCCCCC1)CCN2CC | -6.067 | 5.26
O=C(O)C(F)(F)F.O=S(=O)(C1CC1)N1CCc2ncnc(-c3ccncc3)c2CC1 | -1.194 | -2.678 and 5.146
CCC(Nc1cccc(OC)c1)C(=O)NCc1nc(C)cc(=O)[nH]1 (centres undefined) | 4.272 | 9.303
CCN(Cc1c(C)nn(CC)c1C)S(=O)(=O)c1cn(C)nc1C | -4.309 | -8.103
Cc1ccc(CNCC2Cn3nncc3CO2)s1 (centres undefined) | -1.41 | 4.006
Cn1ccnc1CN1CCC2(CC1)COC2.O=C(O)C(F)(F)F | -4.214 | 17.33
O=c1c2c(ncn1CCO)nc1n2CCC1 | 1.99 | 26.23
O=C(O)c1c(-c2ccncc2)ncc2c1CCN(Cc1ccco1)C2 | -12.46 | -19.37
COc1ccnc(N(C)Cc2ccccc2OC(F)(F)F)n1 | 8.244 and -21.74 | -3.728 and -0.9633
CCc1noc(C)c1C(=O)N1CCCC1Cn1cc(C)cn1 (centres undefined) | -26.67 | -30.45
CNC(=O)c1ccc(CN(C)C(=O)Nc2nnc(C(C)C)s2)cc1 | 8.593 and -4.414 | 20.89
CC(C)(O)CCc1cccc(C(=O)NCCC2=CSC3=NCCCN23)c1 | 8.57 | -8.463 and -2.465
COc1cccc(OCC(=O)N2CCOc3ccncc32)c1 | -9.152 and -5.168 | -22.55
Cc1cc(NC(=O)CN2CCCC2c2c(C)nn(C)c2C)on1 (centres undefined) | -11.81 | 8.966 and -41.47
COc1cccc(-c2ncc(CN3CC[C@H](CO)[C@@H](O)C3)s2)c1 | 5.196 | -4.118 and 2.422
Cc1ccc(NS(=O)(=O)c2c[nH]c3ncccc23)nc1 | -3.409 | 28.57
CCc1cc(N2CCCC(c3noc(CC)n3)C2)ncn1 (centres undefined) | -21.41 | -0.6612
O=C(O)[C@@H]1CN(C2CCCC2)C[C@H]1C1CC1 | 14.55 | 3.606 and 20.6
O=C(NCCc1cccc(F)c1)NCC(O)c1cccc(F)c1 (centres undefined) | -8.186 | -15.22
[H][C@]12CC[C@]([H])(CN(C(=O)c3c[nH]c(=O)c(Cl)c3)C1)N(CC=C(C)C)C2 | 0.5047 | -19.96
O=C1CN(Cc2cc(O)c3cccc(F)c3n2)CCN1C1CCCC1 | 11.55 | -24.13
Cc1ccc(CN2CCC3(CCCN(S(C)(=O)=O)C3)C2)o1 (centres undefined) | -10.39 and -4.998 | 11.93
COCC(=O)NCc1cc2n(n1)CCCN(Cc1ccccc1SC)C2 | 27.25 | 23.02
O=C(NCC1(O)COCCN(Cc2cccc(O)c2)C1)c1ccccn1 (centres undefined) | 11.92 | 8.837
CNC(=O)CCc1cc(C2CCCCN2C)nc(C)n1 (centres undefined) | -6.513 and 0.8072 | -1.049
CCC(O)CN1CCN(C(=O)CCSC)CC1 (centres undefined) | -2.567 | 19.99 and 3.023
Cc1nc(C(=O)N2CCCC2c2c(C)nn(C)c2C)ccc1C#N (centres undefined) | -0.6127 | -8.722
COc1cc(CNC(C)Cn2ccnc2)cc2c1OCO2.Cl (centres undefined) | -10.94 | -14.72
Cl.NC(C(=O)N1CCSc2ccccc2C1)c1ccccc1 (centres undefined) | -10.5 | -3.389
Cc1cnc(Cn2cc(-c3cccc(C(C)N(C)C)c3)nn2)cn1 (centres undefined) | 2.226 and 0.7421 | -1.201
COC(=O)COn1c(OC)nc2ccccc2c1=O | -10.08 | -10.49
CCN(CC)Cc1ccc(C(=O)N2CCN(CC(C)O)CC2)o1 (centres undefined) | -8.91 | -20.82 and -2.383
O=C(O)C(F)(F)F.O=C(O)C(F)(F)F.[H][C@@]12CN(CC3CCOC3)C[C@]1([H])OCCN2CC(=O)NC (some centres undefined) | 12.26 | -0.7789 and -9.211
Cc1nc(N2CCCCC2)ncc1-c1cc(O)[nH]n1 | -6.706 | -20.1
Cc1nc(-c2ccccc2)n(CC(=O)NC2CCCC2)n1 | -10.57 | 13.26
CN(CC(=O)N(C)C(c1cccnc1)c1ccc(F)c(F)c1)C1CC1 (centres undefined) | -54.81 | -56.31 and 2.086
O=C(CCC(=O)N1CCC(Oc2ncccc2Br)CC1)c1ccccc1 | 58.14 | 69.44
COc1ccc(Cl)cc1C(C(=O)O)N1CCSCC1 (centres undefined) | -2.458 | 23.19
N#Cc1cc(F)ccc1Cn1cncn1 | -9.06 | -20.25 and -4.725
[H][C@@]12CCN(C(=O)c3cnccn3)C[C@@]1([H])O[C@H](C)C2 | 2.787 and -10.73 | 10.22
Cc1nccn1C1CCCN(C(=O)CCc2nc(C(C)C)no2)C1 (centres undefined) | 12.03 | -18.27
Cc1csc(CNC(=O)NCC(O)c2ccccc2)n1 (centres undefined) | -21.58 | -7.258 and -12.1
Cn1cc(NC(=O)Nc2ccc3c(c2)OCO3)cn1 | 10.58 | 12.77
O=C(O)c1cc(N2C[C@H](NC(=O)C3CCOCC3)[C@@H](C3CC3)C2)ccn1 | 0.924 | 11.32
Cc1ncccc1Oc1cncc(C2CCCN2Cc2cncn2C)n1 (centres undefined) | -1.836 | 3.589
CC(=O)N1CCCC(C(=O)NCCOc2cc(C)cc(C)c2)C1 (centres undefined) | -1.466 | -11.59
Cc1ccc(C(NC(=O)CN2CCc3cncnc3C2)C2CC2)cc1 (centres undefined) | 3.581 | -2.694 and 5.027
Cc1c(Cl)cccc1S(=O)(=O)N1CCC(S(=O)(=O)c2nncn2C)CC1 | -17.6 | -13.9

Some entries from above, unchanged:

* O=C(O)C(F)(F)F.O=S(=O)(C1CC1)N1CCc2ncnc(-c3ccncc3)c2CC1 | Mtb cholesterol medium: -1.194%; Mtb glucose medium: -2.678% and 5.146%
* CC(C)Oc1cccc(C(=O)C2CCCN(S(=O)(=O)C(C)C)C2)c1 (centres undefined) | Mtb cholesterol medium: 8.815%; Mtb glucose medium: -9.244%
* O=C(Nc1cccnc1)c1nn(C2CCS(=O)(=O)C2)c2c1CCCC2 (centres undefined) | Mtb cholesterol medium: -10.54%; Mtb glucose medium: 1.34%
* O=C1CN(Cc2cc(O)c3cccc(F)c3n2)CCN1C1CCCC1 | Mtb cholesterol medium: 11.55%; Mtb glucose medium: -24.13%
* CNC(=O)c1ccc(CN(C)C(=O)Nc2nnc(C(C)C)s2)cc1 | Mtb cholesterol medium: 8.593% and -4.414%; Mtb glucose medium: 20.89%
* CCc1nccn1C1CCCN(C(=O)c2cnn3cccnc23)C1 (centres undefined) | Mtb cholesterol medium: -44.16%; Mtb glucose medium: -14.03%
* COc1cccc(C(=O)N2CCc3c(nc(N)[nH]c3=O)C2)c1OC | Mtb cholesterol medium: -40.35%; Mtb glucose medium: -12.25%
* c1ccc(CC2(CNCc3ncc[nH]3)CCC2)cc1 | Mtb cholesterol medium: 11.91%; Mtb glucose medium: 4.558%